Reference: paper PMC4964526
These are yes or no findings as the source states them, for the method shown. Binding seen in cells or lysates may run through a third protein. Binding calls can cover weak binding; strength is not graded here. Sequences can lack the tags named with a protein.

Experiments:
Assay in all cases: split reporter; split YFP; OsCYP19-4 isoforms in pSPYNE-35S, AtRCN1 in pSPYCE-35S; co-expressed with P19 in N. benthamiana leaves by agroinfiltration; YFP fluorescence 48 h post-infiltration, confocal microscopy
[1] = biological target: OsCYP19-4.1 split-YFP fusion (4.1-NE) for BiFC (Oryza sativa)
[2] = biological target: OsCYP19-4.3 split-YFP fusion (4.3-NE) for BiFC (Oryza sativa)
[3] = biological target: OsCYP19-4.2 split-YFP fusion (4.2-NE) for BiFC (Oryza sativa)

Measured: binding

B1: AtRCN1 split-YFP fusion (AtRCN1-CE) for BiFC (protein, UniProt Q38845 1-588)
chain: MAMVDEPLYPIAVLIDELKNDDIQLRLNSIRRLSTIARALGEERTRKELIPFLSENSDDDDEVLLAMAEELGVFIPFVGGIEFAHVLLPPLESLCTVEETCVREKAVESLCKIGSQMKENDLVESFVPLVKRLAGGEWFAARVSACGIFHVAYQGCTDVLKTELRATYSQLCKDDMPMVRRAAASNLGKFATTVESTFLIAEIMTMFDDLTKDDQDSVRLLAVEGCAALGKLLEPQDCVARILPVIVNFSQDKSWRVRYMVANQLYELCEAVGPDCTRTDLVPAYVRLLRDNEAEVRIAAAGKVTKFCRLLNPELAIQHILPCVKELSSDSSQHVRSALASVIMGMAPILGKDSTIEHLLPIFLSLLKDEFPDVRLNIISKLDQVNQVIGIDLLSQSLLPAIVELAEDRHWRVRLAIIEYVPLLASQLGIGFFDDKLGALCMQWLQDKVYSIREAAANNLKRLAEEFGPEWAMQHLVPQVLDMVNNPHYLHRMMVLRAISLMAPVMGSEITCSKFLPVVVEASKDRVPNIKFNVAKLLQSLIPIVDQSVVDKTIRQCLVDLSEDPDVDVRYFANQALNSIDGSTAAQS
binds: all assays above
